Assay results as given in patent US20250090651A1.
Changes are numbered by the printed parent chain. No constants are given. Whether binding was seen depends on the method and setting. Some binding calls cover weakened binding; strength is not graded here.

B1: RSV/B.147 (protein)
chain: QNITEEFYQSTCSAVSRGYLSALRTGWYTSVITIELSNIKETKCNGTDTKVKLIKQELDKYKNAVTELQLLMQNTPAVNNRARREAPQYMNYTINTTKNLNVSISKKRKRRFLGFLLGVGSAIASGIAVCKVLHLEGEVNKIKNALQLTNKAVVSLSNGVSVLTFRVLDLKNYINNQLLPMLNRQSCRISNIETVIEFQQKNSRLLEITREFSVNAGVTTPLSTYMLTNSELLSLINDMPITNDQKKLMSSNVQIVRQQSYSIMCIIKEEVLAYVVQLPIYGVIDTPCWKLHTSPLCTTNIKEGSNICLTRTDRGWYCDNAGSVSFFPQADTCKVQSNRVFCDTMNSLTLPSEVSLCNTDIFNSKYDCKIMTSKTDISSSVITSLGAIVSCYGKTKCTASNKNRGIIKTFSNGCDYVSNKGVDTVSVGNTLYYVNKLEGKNLYVKGEPIINYYDPLVFPSDRFDASISQVNEAINQSREIIRAINIVRKIASEKGSGGSGSGSGGSEKAAKAEEAARKMEELFKKHKIVAVLRANSVEEAIEKAVAVFAGGVHLIEITFTVPDADTVIKALSVLKEKGAIIGAGTVTSVEQARKAVESGAEFIVSPHLDEEISQFAKEKGVFYMPGVMTPTELVKAMKLGHTILKLFPGEVVGPQFVKAMKGPFPNVKFVPTGGVNLDNVAEWFKAGVLAVGVGSALVKGTPDEVREKAKAFVEKIRGATELEHHHHHH
B2: RSV/B.160 (protein)
chain: B1 chain with T224P, T375D, F463W, D464A
B3: RSV/B.178 (protein)
chain: B1 chain with T224P, T375D, D461A, D464A
B4: RSV/B.172 (protein)
chain: B1 chain with T224P, T375D, D464A
B5: RSV/B.195 (protein)
chain: B1 chain with R462E, A473K
B6: RSV/B.171 (protein)
chain: B1 chain with T375D, D464A
B7: RSV/B.189 (protein)
chain: B1 chain with T375D, D461A, F463W, D464A
B8: RSV/B.002 (protein)
chain: QNITEEFYQSTCSAVSRGYLSALRTGWYTSVITIELSNIKETKCNGTDTKVKLIKQELDKYKNAVTELQLLMQNTPAVNNRARREAPQYMNYTINTTKNLNVSISKKRKRRFLGFLLGVGSAIASGIAVCKVLHLEGEVNKIKNALQLTNKAVVSLSNGVSVLTFRVLDLKNYINNQLLPMLNRQSCRISNIETVIEFQQKNSRLLEITREFSVNAGVTTPLSTYMLTNSELLSLINDMPITNDQKKLMSSNVQIVRQQSYSIMCIIKEEVLAYVVQLPIYGVIDTPCWKLHTSPLCTTNIKEGSNICLTRTDRGWYCDNAGSVSFFPQADTCKVQSNRVFCDTMNSLTLPSEVSLCNTDIFNSKYDCKIMTSKTDISSSVITSLGAIVSCYGKTKCTASNKNRGIIKTFSNGCDYVSNKGVDTVSVGNTLYYVNKLEGKNLYVKGEPIINYYDPLVFPSDEFDASISQVNEKINQSLAFIRRSDELLGSGGSGSGSGGSEKAAKAEEAARKMEELFKKHKIVAVLRANSVEEAIEKAVAVFAGGVHLIEITFTVPDADTVIKALSVLKEKGAIIGAGTVTSVEQARKAVESGAEFIVSPHLDEEISQFAKEKGVFYMPGVMTPTELVKAMKLGHTILKLFPGEVVGPQFVKAMKGPFPNVKFVPTGGVNLDNVAEWFKAGVLAVGVGSALVKGTPDEVREKAKAFVEKIRGATELEHHHHHH
B9: RSV/B.099 (protein)
chain: B8 chain with T42V, E462R, K473A
B10: RSV/B.093 (protein)
chain: B8 chain with T375D, D461A, E462R, F463W, D464A, K473A
B11: RSV/B.081 (protein)
chain: B8 chain with T375D, D461A, E462R, D464A, K473A
B12: RSV/B.100 (protein)
chain: B8 chain with T42V, T224P, E462R, K473A
B13: RSV/B.123 (protein)
chain: B8 chain with T42V, T375D, E462R, D464A, K473A
B14: RSV/B.148 (protein)
chain: QNITEEFYQSTCSAVSRGYLSALRTGWYTSVITIELSNIKETKCNGTDTKVKLIKQELDKYKNAVTELQLLMQNTPAVNNRARREAPQYMNYTINTTKNLNVSISKKRKRRFLGFLLGVGSAIASGIAVCKVLHLEGEVNKIKNALQLTNKAVVSLSNGVSVLTFRVLDLKNYINNQLLPMLNRQSCRISNIETVIEFQQKNSRLLEITREFSVNAGVTTPLSPYMLTNSELLSLINDMPITNDQKKLMSSNVQIVRQQSYSIMCIIKEEVLAYVVQLPIYGVIDTPCWKLHTSPLCTTNIKEGSNICLTRTDRGWYCDNAGSVSFFPQADTCKVQSNRVFCDTMNSLTLPSEVSLCNTDIFNSKYDCKIMTSKTDISSSVITSLGAIVSCYGKTKCTASNKNRGIIKTFSNGCDYVSNKGVDTVSVGNTLYYVNKLEGKNLYVKGEPIINYYDPLVFPSDRFDASISQVNEAINQSREIIRAINIVRKIASEKGSGGSGSGSGGSEKAAKAEEAARKMEELFKKHKIVAVLRANSVEEAIEKAVAVFAGGVHLIEITFTVPDADTVIKALSVLKEKGAIIGAGTVTSVEQARKAVESGAEFIVSPHLDEEISQFAKEKGVFYMPGVMTPTELVKAMKLGHTILKLFPGEVVGPQFVKAMKGPFPNVKFVPTGGVNLDNVAEWFKAGVLAVGVGSALVKGTPDEVREKAKAFVEKIRGATELLEHHHHHH

Molecular target: I53-50B.4PosT1
Test: in vitro assembly with I53-50B, DLS

Binder | binding
B1 | binds
B2 | binds
B3 | binds
B4 | binds
B5 | binds
B6 | binds
B7 | binds
B8 | binds
B9 | binds
B10 | binds
B11 | binds
B12 | binds
B13 | binds
B14 | binds
